According to patent US8475772B2 (E I du Pont de Nemours and Company, priority 2003, dated 2013):
Plain letter strings leave the end groups untold.

Experiment: peptide made by a vendor
Conditions: for purity (crude or final not stated): whole synthesis

## Fmoc-R(Pbf)T(tBu)N(Trt)AAD(OtBu)H(Trt)PAAVT(tBu)GGG
  purity (crude or final not stated): 95% purity

## t-Boc-D21-peptide
Late stage modification step
  crude LC-MS purity: 90% by weight
  step yield: 80% yield

## RTNAADHPAAVT
  purity (crude or final not stated): 95% purity
